Data taken from the supplement of paper PMC10689618.
Structures can show the parent of a compound that is named as a salt. This is one part of the list. Single values are uncertain, as repeats are few or missing.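 Primary human fetal astrocytes engulfed labelled rat cortical synaptosomes, measured as a red/green ratio corrected for calcein live-cell signal and scaled to the plate median. Toxicity meant calcein falling over 30%; decreased phagocytosis meant below 70% of median above 5 µM.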

Experiments:
Conditions in all cases: 24 h
Human fetal astrocytes [1] = assay: loss of total cells relative to no-compound high-control median (toxicity); higher = more toxic (fewer cells)
Human fetal astrocytes [2] = assay: as above; remark: listed apart in the source
Human fetal astrocytes [3] = assay: synaptosome phagocytosis (pHrodo/calcein intensity ratio) relative to plate median of data wells; higher = more phagocytosis
Human fetal astrocytes [4] = assay: as above; remark: listed apart in the source

SMILES | loss of total cells (Human fetal astrocytes [1]; 1.39 µM) [%] | loss of total cells (Human fetal astrocytes [1]; 2.78 µM) [%] | loss of total cells (Human fetal astrocytes [1]; 5.56 µM) [%] | loss of total cells (Human fetal astrocytes [1]; 11.11 µM) [%] | loss of total cells (Human fetal astrocytes [1]; 22.22 µM) [%] | loss of total cells (Human fetal astrocytes [2]; 1.39 µM) [%] | loss of total cells (Human fetal astrocytes [2]; 2.78 µM) [%] | loss of total cells (Human fetal astrocytes [2]; 5.56 µM) [%] | loss of total cells (Human fetal astrocytes [2]; 11.11 µM) [%] | loss of total cells (Human fetal astrocytes [2]; 22.22 µM) [%] | synaptosome phagocytosis (Human fetal astrocytes [3]; 1.39 µM) [%] | synaptosome phagocytosis (Human fetal astrocytes [3]; 2.78 µM) [%] | synaptosome phagocytosis (Human fetal astrocytes [3]; 5.56 µM) [%] | synaptosome phagocytosis (Human fetal astrocytes [3]; 11.11 µM) [%] | synaptosome phagocytosis (Human fetal astrocytes [3]; 22.22 µM) [%] | synaptosome phagocytosis (Human fetal astrocytes [4]; 1.39 µM) [%] | synaptosome phagocytosis (Human fetal astrocytes [4]; 2.78 µM) [%] | synaptosome phagocytosis (Human fetal astrocytes [4]; 5.56 µM) [%] | synaptosome phagocytosis (Human fetal astrocytes [4]; 11.11 µM) [%] | synaptosome phagocytosis (Human fetal astrocytes [4]; 22.22 µM) [%]
NC(=O)CC[C@H](N)C(=O)O [L-Glutamine] | -7.9 | -6.8 | -2.5 | 0.4 | 20.8 | -16.4 | 6.1 | 11.7 | 13.5 | -3 | 102 | 143 | 121 | 124 | 124 | 116 | 130 | 83.1 | 124 | 96.7
C#CCN(C)Cc1ccccc1 [Pargyline hydrochloride] | -6.5 | -24.3 | -7.3 | -12.6 | -23 | -12.4 | -14.9 | 5.7 | -6.3 | 2.3 | 112 | 128 | 111 | 91.4 | 87.3 | 98.1 | 117 | 101 | 102 | 111
O=C(O)C1=CC(=C(c2ccc(O)c(C(=O)O)c2)c2ccc(O)c(C(=O)O)c2)C=CC1=O [Aurintricarboxylic acid] | -2.6 | -17.1 | -0.5 | 7.6 | 26.7 | 10.7 | 44.4 | 38.1 | 45.3 | 37 | 138 | 175 | 176 | 134 | 140 | 126 | 102 | 122 | 150 | 130
CCC1(C)CC(=O)NC1=O (stereo not given) [Ethosuximide] | -18.8 | -20.5 | -20.6 | -2.2 | -21.6 | 0 | -27 | -6.8 | -8.9 | 11.5 | 149 | 91 | 93.6 | 77.1 | 120 | 95 | 114 | 112 | 86.9 | 97.3
O=c1c(O)c(-c2cc(O)c(O)c(O)c2)oc2cc(O)cc(O)c12 [Myricetin] | 7.1 | 10.4 | 5.2 | 16.2 | 21.5 | -20.5 | -3.2 | 11.7 | 34.5 | 30.4 | 88.5 | 121 | 115 | 89.9 | 126 | 109 | 98.2 | 115 | 95.5 | 85.7
O=c1cc(-c2ccc(O)cc2)oc2cc(O)cc(O)c12 [Apigenin] | -5.1 | 3 | -28.1 | -28.3 | 1.9 | 19.9 | 6.6 | -6.9 | 36.8 | 24.8 | 150 | 94.5 | 73.5 | 128 | 93.1 | 127 | 109 | 89.1 | 50.2 | 75.2
CS(=O)(=O)Nc1ccc([N+](=O)[O-])cc1Oc1ccccc1 [Nimesulide] | -29.9 | -27.6 | 2.3 | 9.5 | 0.9 | 22 | 14.8 | 4.3 | -5.4 | 21.2 | 109 | 131 | 104 | 104 | 80 | 103 | 72.7 | 87.5 | 112 | 117
CCCC(CCC)C(=O)O [Valproic acid sodium] | -9 | 4.1 | -5.2 | 6.7 | 13.1 | -2.7 | 2.4 | -1.4 | -1.4 | 28.3 | 75.5 | 88.1 | 99.2 | 123 | 134 | 100 | 120 | 96 | 101 | 76.3
Cc1ccc(/C(=C\CN2CCCC2)c2ccccn2)cc1 [Triprolidine hydrochloride] | 3.4 | -12.9 | 10.1 | 1.1 | -30.5 | 4.5 | 7.8 | -0.7 | 13.5 | 8.2 | 74.7 | 111 | 96.2 | 119 | 92.6 | 117 | 116 | 108 | 106 | 112
O=C(O)c1ccccc1Nc1ccccc1 [N-Phenylanthranilic acid] | 0.4 | -2.7 | -5.1 | -1.3 | 1.9 | -33.6 | -11.9 | -11 | 10.8 | -25.9 | 120 | 114 | 90.5 | 94.2 | 79.8 | 112 | 116 | 103 | 101 | 121
CC12CC3CC(C)(C1)CC(N)(C3)C2 [Memantine hydrochloride] | -5.2 | -8.6 | 6.1 | 8.6 | -8.4 | -38.2 | -2.1 | -14.1 | -32.8 | 7.4 | 82 | 94.8 | 92.2 | 85 | 68.5 | 97.3 | 103 | 105 | 61 | 96.7
CC(=O)OCC1=C(C(=O)O)N2C(=O)[C@@H](NC(=O)Cc3cccs3)[C@H]2SC1 [Cephalothin sodium] | 3.7 | -11.7 | -14.3 | -11.2 | -13.2 | -10 | -8.8 | -9.9 | -27.3 | 8.5 | 114 | 100 | 95.6 | 111 | 131 | 94.5 | 117 | 114 | 129 | 119
O=C(O)c1cccnc1C(=O)O [Quinolinic acid] | -7.8 | -15.3 | -15.7 | -10.3 | -20.6 | -1.8 | 8.3 | 13.8 | 4.6 | -0.8 | 133 | 104 | 108 | 123 | 123 | 94.3 | 103 | 109 | 98.2 | 116
NCCSSCCN [Cystamine dihydrochloride] | -15.8 | -17.4 | -6 | -4 | 7.9 | -21.3 | -0.4 | 8.1 | 25 | 31.1 | 112 | 89.1 | 104 | 92.7 | 66.8 | 119 | 86.9 | 100 | 95.3 | 99.3
CC(C[N+](C)(C)C)OC(N)=O (stereo not given) [Bethanechol chloride] | -13.9 | -10.8 | -2.3 | -13.9 | -11.7 | -24.9 | -24.7 | -1.5 | -18 | -5.7 | 108 | 100 | 117 | 99.7 | 90 | 125 | 117 | 115 | 87.3 | 96.8
Cc1nc2ccccn2c(=O)c1CCN1CCC(C(=O)c2ccc(F)cc2)CC1 [Pirenperone] | -4.7 | -13.5 | -8.4 | -18.8 | -14.8 | 1.6 | -46.8 | 19.9 | 10.8 | 6.5 | 114 | 92.7 | 104 | 80.4 | 77.8 | 62 | 90.7 | 104 | 109 | 105
CC(=O)OC(C)C[N+](C)(C)C (stereo not drawn) [Acetyl-beta-methylcholine chloride] | -20.6 | -15.9 | -12.4 | 9.4 | 4.1 | -0.8 | -9.5 | 11.7 | 6.3 | -4 | 78.9 | 129 | 108 | 107 | 118 | 65.4 | 104 | 94.8 | 125 | 104
CC[N+](C)(C)c1cccc(O)c1 [Edrophonium chloride] | -5.4 | -8.5 | -14.8 | -6.7 | -24.8 | -13.3 | -10.7 | 6.3 | -10.9 | 5.7 | 90.4 | 112 | 106 | 93.6 | 102 | 93.9 | 108 | 97.8 | 107 | 83.8
Cc1nnc(SCC2=C(C(=O)O)N3C(=O)[C@@H](NC(=O)Cn4cnnn4)[C@H]3SC2)s1 [Cefazolin sodium] | -10.6 | -13.2 | -23.5 | -9.4 | 12.4 | 22.8 | -2.7 | -12.2 | 41.9 | -16.7 | 141 | 60.5 | 53.8 | 112 | 122 | 119 | 122 | 91.5 | 104 | 130
COc1ccccc1OCC(O)CN1CCN(CC(=O)Nc2c(C)cccc2C)CC1 (stereo not given) [Ranolazine dihydrochloride] | -7.8 | -26.6 | -9 | 3.4 | 11.5 | -11.6 | -0.9 | 7.5 | -14.1 | -22.1 | 81.4 | 102 | 109 | 62.4 | 71.7 | 94.9 | 118 | 98.1 | 96 | 62.5
O=C(/C=C/c1ccc(O)c(O)c1)OCCc1ccccc1 [Caffeic acid phenethyl ester] | -13.2 | -8.7 | 16.1 | 6.7 | 12.4 | 22 | 33.6 | 36.2 | 44.8 | 40.9 | 50.4 | 82.9 | 88.7 | 44.6 | 58.6 | 44.5 | 91.5 | 81.9 | 64.8 | 72.2
O=c1n(CCCN2CCN(c3cccc(Cl)c3)CC2)nc2ccccn12 [Trazodone hydrochloride] | -17.7 | -11.7 | -6.7 | -18.8 | -37.9 | -33.1 | 27 | -4.3 | 16.1 | 15.3 | 82.1 | 118 | 91.3 | 97.7 | 118 | 88.1 | 105 | 102 | 80.9 | 80.1
NC1(C(=O)O)CC1 [1-Aminocyclopropanecarboxylic acid hydrochloride] | 5.1 | 6.9 | -8.8 | 6.7 | 10.9 | -9 | 5.4 | 5.9 | 20.3 | 2.2 | 113 | 104 | 109 | 121 | 102 | 93.1 | 118 | 118 | 98.9 | 102
CN(C)CCOC(c1ccccc1)c1ccccc1 [Diphenhydramine hydrochloride] | 7.9 | -22.2 | -16.5 | -2.2 | 12 | -6.2 | -42.4 | -25.1 | -6.6 | -13.7 | 122 | 105 | 134 | 58.4 | 71.1 | 115 | 87.8 | 128 | 90.9 | 110
CC1=C(/C=C/C(C)=C/C=C/C(C)=C/C(=O)O)C(C)(C)CCC1 [Retinoic acid] | -14.6 | -35.6 | -15.7 | -14.2 | 14 | 20.2 | -18.3 | -6.2 | 44.9 | 7.2 | 169 | 125 | 101 | 135 | 82 | 123 | 124 | 104 | 108 | 116
COc1ccc2c(c1)c(CC(=O)O)c(C)n2C(=O)c1ccc(Cl)cc1 [Indomethacin] | -4.3 | 1.4 | 15.5 | 9.5 | 14 | 3.9 | -23.4 | -12.5 | -22.2 | 3.3 | 118 | 138 | 91.1 | 103 | 119 | 123 | 109 | 94 | 91.9 | 92.2

Two entries drawn at random from the list so far:
SMILES | loss of total cells (Human fetal astrocytes [1]; 1.39 µM) [%] | loss of total cells (Human fetal astrocytes [1]; 2.78 µM) [%] | loss of total cells (Human fetal astrocytes [1]; 5.56 µM) [%] | loss of total cells (Human fetal astrocytes [1]; 11.11 µM) [%] | loss of total cells (Human fetal astrocytes [1]; 22.22 µM) [%] | loss of total cells (Human fetal astrocytes [2]; 1.39 µM) [%] | loss of total cells (Human fetal astrocytes [2]; 2.78 µM) [%] | loss of total cells (Human fetal astrocytes [2]; 5.56 µM) [%] | loss of total cells (Human fetal astrocytes [2]; 11.11 µM) [%] | loss of total cells (Human fetal astrocytes [2]; 22.22 µM) [%] | synaptosome phagocytosis (Human fetal astrocytes [3]; 1.39 µM) [%] | synaptosome phagocytosis (Human fetal astrocytes [3]; 2.78 µM) [%] | synaptosome phagocytosis (Human fetal astrocytes [3]; 5.56 µM) [%] | synaptosome phagocytosis (Human fetal astrocytes [3]; 11.11 µM) [%] | synaptosome phagocytosis (Human fetal astrocytes [3]; 22.22 µM) [%] | synaptosome phagocytosis (Human fetal astrocytes [4]; 1.39 µM) [%] | synaptosome phagocytosis (Human fetal astrocytes [4]; 2.78 µM) [%] | synaptosome phagocytosis (Human fetal astrocytes [4]; 5.56 µM) [%] | synaptosome phagocytosis (Human fetal astrocytes [4]; 11.11 µM) [%] | synaptosome phagocytosis (Human fetal astrocytes [4]; 22.22 µM) [%]
CCCC(CCC)C(=O)O [Valproic acid sodium] | -9 | 4.1 | -5.2 | 6.7 | 13.1 | -2.7 | 2.4 | -1.4 | -1.4 | 28.3 | 75.5 | 88.1 | 99.2 | 123 | 134 | 100 | 120 | 96 | 101 | 76.3
CC[N+](C)(C)c1cccc(O)c1 [Edrophonium chloride] | -5.4 | -8.5 | -14.8 | -6.7 | -24.8 | -13.3 | -10.7 | 6.3 | -10.9 | 5.7 | 90.4 | 112 | 106 | 93.6 | 102 | 93.9 | 108 | 97.8 | 107 | 83.8
